The values below are quoted from earlier work in US9211288B2 (priority 2012, dated 2015).

The conditions of this data set: plasma; cited from earlier work.

Turning to `COc1cc2c(cc1OC)C(=O)C(CC1CCN(Cc3ccccc3)CC1)C2` (stereo not shown) [Donepezil], the half-life in humans entry was “approximately 70 hours”.
